Measured data: PubChem BioAssay AID1259291 (Sanger Institute, 2017)

- Aim: 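Find kinase and colorectal-cancer-mutated genes whose loss kills HT29 cells or aids anchor drugs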 (primary screen)
- Cell system: HT29 human colorectal cancer cells
- Reagent: siRNA pool against human genes
- Conditions: anchor drugs added a day after transfection: BYL719 at 1 µM, cetuximab at 5 µg/ml or trametinib at 10 nM, or DMSO vehicle alone
- Detection: 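Replicate-averaged viability relative to non-targeting pool, robust z-score based on control wells, plus per-drug synergy score for 1 µM BYL719, 5 µg/ml cetuximab and 10 nM trametinib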
- Reading the numbers: robust z-score, knock-down alone: higher = more viable cells
- Active means: 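Essential when the robust z-score for knock-down without any drug is below -3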
- Calls: active = essential (knock-down alone); inactive = no change alone
This is one part, drawn at random, of 794 reagents tested. Over the whole deposit, 15 (1.9%) were called active. 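Calls rest on knock-down alone; drug synergy scores do not affect them; drugs added a day post-transfection, DMSO vehicle as comparison.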 Not all columns of the deposit are shown. The record does not give: the amount of reagent, the time to read-out.

gene | robust z-score, knock-down alone | Call
NEK2 (GeneID 4751) | 0.552 | inactive
PTK6 (GeneID 5753) | 0.552 | inactive
PRKCB (GeneID 5579) | -0.403 | inactive
PHKA2 (GeneID 5256) | 0.442 | inactive
MAP3K9 (GeneID 4293) | 0.552 | inactive
MAST2 (GeneID 23139) | -0.209 | inactive
PIK3R4 (GeneID 30849) | 0.473 | inactive
CDK4 (GeneID 1019) | 0.552 | inactive
EFNB3 (GeneID 1949) | -0.842 | inactive
TESK2 (GeneID 10420) | 0.552 | inactive
PRKAR1B (GeneID 5575) | 0.552 | inactive
EPHA7 (GeneID 2045) | -2.07 | inactive
EPHA3 (GeneID 2042) | -1.21 | inactive
ALPK2 (GeneID 115701) | 0.552 | inactive
ULK3 (GeneID 25989) | 0.552 | inactive
NAGK (GeneID 55577) | 0.552 | inactive
ABL2 (GeneID 27) | 0.48 | inactive
EFNA3 (GeneID 1944) | 0.552 | inactive

Reprinted from the entries so far, 6 entries:
gene | robust z-score, knock-down alone | Call
NEK2 (GeneID 4751) | 0.552 | inactive
PTK6 (GeneID 5753) | 0.552 | inactive
PRKCB (GeneID 5579) | -0.403 | inactive
PHKA2 (GeneID 5256) | 0.442 | inactive
MAP3K9 (GeneID 4293) | 0.552 | inactive
MAST2 (GeneID 23139) | -0.209 | inactive

Continued:
gene | robust z-score, knock-down alone | Call
MYLK2 (GeneID 85366) | -0.664 | inactive
RIPK3 (GeneID 11035) | -1.01 | inactive
CAD (GeneID 790) | 0.552 | inactive
POLR2B (GeneID 5431) | -5.67 | active
DYRK2 (GeneID 8445) | 0.552 | inactive
CSNK1E (GeneID 1454) | -0.812 | inactive
GUCY2D (GeneID 3000) | -6.33 | active
CDKN1A (GeneID 1026) | 0.552 | inactive
TBK1 (GeneID 29110) | 0.552 | inactive
MAPKAPK3 (GeneID 7867) | -2.47 | inactive
WNK3 (GeneID 65267) | 0.552 | inactive
AKT1 (GeneID 207) | 0.552 | inactive
PIK3CD (GeneID 5293) | 0.552 | inactive
CSF1R (GeneID 1436) | 0.552 | inactive
CDK13 (GeneID 8621) | 0.552 | inactive
CDK5R2 (GeneID 8941) | -0.646 | inactive
PI4K2B (GeneID 55300) | 0.552 | inactive
CSNK1G2 (GeneID 1455) | 0.552 | inactive
FLT4 (GeneID 2324) | 0.552 | inactive
NTRK2 (GeneID 4915) | -1.19 | inactive
TCF7L2 (GeneID 6934) | -3.56 | active
SRP72 (GeneID 6731) | -0.11 | inactive
PSKH1 (GeneID 5681) | 0.552 | inactive
BTK (GeneID 695) | 0.552 | inactive
ROS1 (GeneID 6098) | -0.583 | inactive
PCK1 (GeneID 5105) | 0.135 | inactive
JAK3 (GeneID 3718) | 0.552 | inactive
AMHR2 (GeneID 269) | 0.552 | inactive
GRK7 (GeneID 131890) | 0.552 | inactive
PIK3CB (GeneID 5291) | 0.552 | inactive
GTF2H1 (GeneID 2965) | 0.552 | inactive
IGF2R (GeneID 3482) | 0.552 | inactive
